# Results published in patent publication US20260374818A1, “CATIONIC PEPTIDES WITH BROAD SPECTRUM ACTIVITY” (priority 2023, published 2026).
# Test system: Enterococcus faecium #2-1
# Assay: Biofilm inhibition (at least 80%), E. faecium
# Type: cell-based
# Details: E. faecium #2-1; n = 3; TSB + 1% glucose; 48 hours; crystal violet
smiles,measurement,value
O=C(O)c1cn(C2CC2)c2cc(N3CCNCC3)c(F)cc2c1=O [CIP],Peptide/Antibiotic Concentration where at least 80% of biofilm growth was inhibited,>256 µg/mL
